The subject of series [1] is Ct-DNA. The series is described as follows: Circular dichroism. It counts as binding. As to conditions: Ct-DNA 50 μM, compound 50 μM. In general terms: Circular dichroism is the unequal absorption of left and right circularly polarised light.
Series [2] concerns Ct-DNA. Kind of series: Time-resolved fluorescence. It is filed as binding.

Consider `CN(C)c1ccc(C2CC(c3ccc(Cl)cc3)=NN2C(N)=S)cc1` (centres unmarked) [Compound 3a], for which, in the series with Ct-DNA [1], the “DNA binding mode (circular dichroism)” value was “intercalative mode”. In the series on Ct-DNA [2] (upon addition of DNA), the “amplitude of τ1 time component” value was 28.57%, the “amplitude of τ2 time component” value was 32.78% and the “amplitude of τ3 time component” value was 38.65%. Also, in the series with Ct-DNA [2] (with Ct-DNA, listed as 3a–DNA), the “lifetime τ1” value is listed as 1.38 ns, the “lifetime τ2” value worked out at 7.23 ns and the “lifetime τ3” value came out at 0.29 ns. Besides, in the series on Ct-DNA [2] (without Ct-DNA), the “amplitude of τ1 time component” value turned out to be 27.81%, the “amplitude of τ2 time component” value is 33.73%, the “amplitude of τ3 time component” value is recorded as 38.46% and the “lifetime τ1” value is given as 1.26 ns. Moreover, in the series on Ct-DNA [2] (without Ct-DNA), the “lifetime τ2” value is 7.46 ns and the “lifetime τ3” value turned out to be 0.18 ns.

As to `CN(C)c1ccc(C2CC(c3cccc(Br)c3)=NN2C(N)=O)cc1` (centres unmarked) [Compound 3h], the “DNA binding mode (circular dichroism)” value in the series on Ct-DNA [1] was “intercalative mode”. Besides, in the series with Ct-DNA [2] (upon addition of DNA), the “amplitude of τ1 time component” value amounted to 35.34%, the “amplitude of τ2 time component” value turned out to be 19.64% and the “amplitude of τ3 time component” value came out at 45.05%. In the series on Ct-DNA [2] (with Ct-DNA, listed as 3h–DNA), the “lifetime τ1” value is 1.0 ns, the “lifetime τ2” value came to 6.73 ns and the “lifetime τ3” value is 0.21 ns. Further, in the series with Ct-DNA [2] (without Ct-DNA), the “amplitude of τ1 time component” value came to 36.5%, the “amplitude of τ2 time component” value came out at 17.41%, the “amplitude of τ3 time component” value is on record as 46.09% and the “lifetime τ1” value is given as 0.90 ns. Further, in the series with Ct-DNA [2] (without Ct-DNA), the “lifetime τ2” value is reported as 6.60 ns and the “lifetime τ3” value is on record as 0.12 ns.
